Patent US8404672B2, “Substituted heterocyclic compounds” (Bristol-Meyers Squibb Company, priority 2009, dated 2013)
Where a name gives a salt, the structure may show the parent alone. Some of these results come from one statement about several compounds together.

Sequences of proteins named here, by UniProt entry; tags and fusion partners are left off.
UniProt P21453, whole entry: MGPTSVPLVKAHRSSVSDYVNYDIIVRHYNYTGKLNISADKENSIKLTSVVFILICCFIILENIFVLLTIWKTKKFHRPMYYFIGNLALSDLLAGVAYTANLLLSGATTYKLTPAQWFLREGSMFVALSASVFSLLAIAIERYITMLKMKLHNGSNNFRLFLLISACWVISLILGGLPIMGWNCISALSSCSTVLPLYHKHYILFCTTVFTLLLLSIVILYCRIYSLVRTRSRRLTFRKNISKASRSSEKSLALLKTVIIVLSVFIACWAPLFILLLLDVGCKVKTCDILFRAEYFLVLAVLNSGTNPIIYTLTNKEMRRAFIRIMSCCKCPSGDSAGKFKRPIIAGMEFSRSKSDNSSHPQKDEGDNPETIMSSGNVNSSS

What follows are compounds tested against T1, S1P1 (membranes from S1P1/CHO cells) (Homo sapiens, UniProt P21453) (assay: Method A: Receptor [35S] GTPγS Binding Assay, S1P1). Settings: as compared to Comparative Compound A; GTPγS Methods A and B.
T1 construct: expressed in transfected cells; host or cells: S1P1/CHO cells
Type: biochemical
Protocol: Method A: Receptor [35S] GTPγS Binding Assays
Compounds were loaded in a 384 Falcon v-bottom plate (0.5 μl/well in a 3-fold dilution). Membranes prepared from S1P1/CHO cells or EDG3-Gal5-bla HEK293T cells were added to the compound plate (40 μl/well, final protein 3 μg/well) with MULTIDROP®. [^35S]GTP (1250 Ci/mmol, Perkin Elmer) was diluted in assay buffer: 20 mM HEPES, pH 7.5, 10 mM MgCl2, 150 mM NaCl, 1 mM EGTA, 1 mM DTT, 10 μM GDP, 0.1% fatty acid free BSA, and 10 μg/ml Saponin to 0.4 nM. 40 μl of the [^35S] GTP solution was added to the compound plate with a final concentration of 0.2 nM. The reaction was kept at room temperature for 45 min. At the end of incubation, all the mixtures in the compound plate were transferred to a 384 well FB filter plates via GPCR robot system. The filter plate was washed with water 4 times by using the modified manifold Embla plate washer and dried at 60° C. for 45 min. 30 μA of MicroScint 20 scintillation fluid was added to each well for counting at Packard TOPCOUNT®. EC50 is defined as the agonist concentration that corresponds to 50% of the Ymax (maximal response) obtained for each individual compound tested.
Compounds of the present invention and Comparative Compound A were tested in the Receptor [35S] GTPγS Binding Assays (Method A) and Receptor [35S] In some instances, the value is an average of multiple experiments where N is the number of experiments conducted that provided satisfactory dose response curves. When more than one batch of an example was tested, the value presented is from a batch which allowed a comparison of GTPγS S1P1 and GTPγS S1P3 in which the most number of experiments were performed. Preferably, the same batch was examined in Method A and Method B. Data was not averaged across different batches of an example compound.

Selectivity of S1P1 agonist activity over S1P3 (in words), selective over S1P3:
O=C(O)C1CN(Cc2ccc(-c3noc(-c4onc(-c5ccccn5)c4C(F)(F)F)n3)cc2)C1 [Example 1, 1-(4-(5-(3-(Pyridin-2-yl)-4-(trifluoromethyl)isoxazol-5-yl)-1,2,4-oxadiazol-3-yl)benzyl)azetidine-3-carboxylic acid]
O=C(O)C1CN(Cc2ccc(-c3noc(-c4noc(-c5ccccn5)c4C(F)(F)F)n3)cc2)C1 [Example 2, 1-(4-(5-(5-(Pyridin-2-yl)-4-(trifluoromethyl)isoxazol-3-yl)-1,2,4-oxadiazol-3-yl)benzyl)azetidine-3-carboxylic acid]
CCCc1c(-c2nc(-c3ccc(CN4CC(C(=O)O)C4)cc3)no2)noc1-c1ccccn1 [Example 3, 1-(4-(5-(4-Propyl-5-(pyridin-2-yl)isoxazol-3-yl)-1,2,4-oxadiazol-3-yl)benzyl)azetidine-3-carboxylic acid, 2,2,2-trifluoroacetic acid salt]
CC(C)c1c(-c2nc(-c3ccc(CN4CC(C(=O)O)C4)cc3)no2)noc1-c1ccccn1 [Example 4, 1-(4-(5-(4-Isopropyl-5-(pyridin-2-yl)isoxazol-3-yl)-1,2,4-oxadiazol-3-yl)benzyl)azetidine-3-carboxylate, 2,2,2-trifluoroacetic acid salt]
CCc1c(-c2nc(-c3ccc(CN4CC(C(=O)O)C4)cc3)no2)noc1-c1ccccn1 [Example 5, 1-(4-(5-(4-Ethyl-5-(pyridin-2-yl)isoxazol-3-yl)-1,2,4-oxadiazol-3-yl)benzyl)-azetidine-3-carboxylic acid, 2,2,2-trifluoroacetic acid salt]
CCCc1c(-c2ccccn2)noc1-c1nc(-c2ccc(CN3CC(C(=O)O)C3)cc2)no1 [Example 6, 1-(4-(5-(4-Propyl-3-(pyridin-2-yl)isoxazol-5-yl)-1,2,4-oxadiazol-3-yl)benzyl)-azetidine-3-carboxylic acid, 2,2,2-trifluoroacetic acid salt]
COC(=O)c1c(-c2ccccn2)noc1-c1nc(-c2ccc(CN3CC(C(=O)O)C3)cc2)no1 [Example 7, 1-(4-(5-(4-(Methoxycarbonyl)-3-(pyridin-2-yl)isoxazol-5-yl)-1,2,4-oxadiazol-3-yl)benzyl)azetidine-3-carboxylic acid]
O=C(O)C1CN(Cc2ccc(-c3noc(-c4cc(-c5ccccn5)no4)n3)cc2)C1 [Example 8]
